# From the supplement of paper PMC8288183
# Some of the results follow. Most values come without repeats; read them as rough.
# Target: T1, NSUN6 (UniProt Q8TEA1)
# T1 sequence: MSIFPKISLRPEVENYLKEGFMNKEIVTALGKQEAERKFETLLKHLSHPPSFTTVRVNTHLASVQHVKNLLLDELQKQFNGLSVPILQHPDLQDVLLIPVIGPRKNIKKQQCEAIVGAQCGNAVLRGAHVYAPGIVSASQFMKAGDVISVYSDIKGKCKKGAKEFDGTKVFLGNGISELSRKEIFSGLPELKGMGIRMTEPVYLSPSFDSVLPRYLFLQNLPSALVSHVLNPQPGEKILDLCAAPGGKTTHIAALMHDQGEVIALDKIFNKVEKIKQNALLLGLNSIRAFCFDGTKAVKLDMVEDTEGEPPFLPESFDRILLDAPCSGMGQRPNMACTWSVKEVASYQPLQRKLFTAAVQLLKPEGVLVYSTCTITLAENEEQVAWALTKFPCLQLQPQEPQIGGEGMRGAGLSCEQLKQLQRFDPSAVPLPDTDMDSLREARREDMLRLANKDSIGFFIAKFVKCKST
# Assay: m5C methylation level at the target C (C/(C+U) bisulfite reads) (fraction); higher = more methylation by NSUN6; extreme values may be limits of the assay
# Settings: HEK293T (wild-type)
# Procedure: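 High-throughput mutagenesis reporter. About 140 bp oligo-pool variants of four natural Type II m5C substrates (substrate #1 chr15:91425541; #2 RAB15 3'UTR chr14:65413377; #3 SULT2A1 5'UTR chr19:48389569; #4 NAAA CDS chr4:76857361) were cloned as 3'UTR elements of psiCHECK-2 luciferase and transfected into wild-type HEK293T cells. Total RNA was taken 48 h later and m5C level was measured by targeted bisulfite sequencing as C/(C+U) reads at the m5C site (one library).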
# [1] = parent substrate: substrate #1 (main figure)
Sequence,m5C methylation level at the target C [1],m5C methylation level at the target C (parent substrate: substrate #2),m5C methylation level at the target C (parent substrate: substrate #3),m5C methylation level at the target C (parent substrate: substrate #4)
UCUGAA,0,0.0034,0,0
GCAGUA,0.00191,0.0013,0.00548,0.00223
UCGAGA,0.00519,0.00795,0.00131,0.00104
UCGCUG,0.0015,0.000949,0.0025,0.00182
ACAACU,0,0.00271,0,0.00148
CCUUUC,0.00138,0,0,0
ACCAAG,0.00426,0,0,0
ACUAUG,0,0,0,0.00103
ACACAC,0.00095,0.0012,0.00163,0.00092
ACUUGU,0.00248,0.00228,0,0
CCACAC,0,0.00602,0.000533,0.0106
GCCUAG,0,0.0086,0.00365,0.00208
CCAUGU,0,0.00277,0.00258,0.00559
GCAUGG,0.0039,0,0.000601,0
UCUGCA,0,0.00212,0.000775,0
UCGACG,0.00185,0.00717,0.00467,0.0107
GCUCCC,0.00129,0,0.00043,0.00171
GCGGUC,0.00175,0,0.00151,0
CCAGGG,0,0,0.00774,0.00144
UCAGAG,0.00495,0.00252,0.000489,0
UCCCAU,0.00083,0.00114,0.00142,0.00123
UCUCUG,0.00145,0.000983,0,0
CCACAU,0,0,0.000505,0.000994
ACAAAG,0,0.0271,0,0.00421

Sequence,m5C methylation level at the target C [1],m5C methylation level at the target C (parent substrate: substrate #2),m5C methylation level at the target C (parent substrate: substrate #3),m5C methylation level at the target C (parent substrate: substrate #4)
CCCGCA,0.00112,0,0.00172,0
CCUACG,0.00316,0,0.000975,0
CCGGGU,0,0.00105,0.000317,0.00152
CCAGUU,0,0,0.000394,0
ACCAGU,0,0.000623,0.00574,0.00185
CCACCC,0.000436,0,0.000421,0
UCACAG,0.0021,0,0,0.00245
CCGACG,0.00422,0,0.00152,0.000593
UCUCAG,0,0,0.000873,0.000684
GCCAGC,0,0.00171,0.00168,0
UCUACU,0,0.00245,0,0
CCCCAC,0.00124,0.00162,0.00273,0.00126
CCCAAU,0.000771,0.00156,0.00438,0.0039
CCAAUG,0,0,0.00208,0
ACAUAA,0.00332,0.00195,0.00232,0.000615
CCGAAA,0.00163,0,0.00274,0.00239
UCUCGC,0,0.0024,0.00054,0.00759
GCUUGA,0.00156,0.00549,0.00391,0.00106
ACGUCC,0.000699,0.00164,0,0.00643
UCGGCA,0,0,0.000397,0.00193
ACACGG,0,0,0.00325,0.000426
CCGUAG,0,0.000745,0.00077,0.00176
UCCCGG,0.00056,0.00128,0.000682,0
ACCACG,0.000572,0.00479,0.000471,0.000756

Sequence,m5C methylation level at the target C [1],m5C methylation level at the target C (parent substrate: substrate #2),m5C methylation level at the target C (parent substrate: substrate #3),m5C methylation level at the target C (parent substrate: substrate #4)
ACACGU,0.01,0,0.00171,0.00251
ACAUUC,0,0,0,0
ACACAA,0,0.00306,0.000566,0
CCUUCU,0.0049,0,0,0
CCGUAC,0.000584,0.00795,0.00221,0.00162
UCGCUU,0.00392,0.00179,0,0.00054
GCAUGC,0.00188,0,0.000695,0.00415
UCGAAC,0,0,0.000475,0.00105
CCUUAG,0,0.000682,0.000593,0
GCAACG,0.00204,0.00464,0.0019,0.00815
CCCGGG,0,0.00073,0,0.00146
UCUGCC,0,0.00337,0.000971,0
CCCAUA,0.00132,0,0.000764,0.00106
GCUACA,0.00153,0.00281,0.000564,0.00266
ACCUCA,0,0.00437,0.00155,0.00335
UCCCUC,0.0115,0.00172,0.000887,0.00195
ACAGUA,0.00154,0,0,0
GCCCAA,0.00129,0,0.000564,0.00152
GCAGCC,0.000878,0.00203,0.000699,0.000908
ACGGGU,0.000797,0,0.000687,0.00444
UCAAAC,0,0,0,0
GCCCAU,0.000978,0.00113,0.000779,0.000611
UCUCCU,0.0016,0,0,0
GCCACC,0.00115,0.00753,0.00132,0.00155

# Only m5C methylation level at the target C [1], m5C methylation level at the target C (parent substrate: substrate #2) and m5C methylation level at the target C (parent substrate: substrate #3) (three entries from above):
Sequence	m5C methylation level at the target C [1]	m5C methylation level at the target C (parent substrate: substrate #2)	m5C methylation level at the target C (parent substrate: substrate #3)
GCGGUC	0.00175	0	0.00151
CCAGGG	0	0	0.00774
UCAGAG	0.00495	0.00252	0.000489
